Article PMC8225674
Results are given in words; binding and its absence hold for the method and conditions named. In cells and extracts the contact can be indirect. Some results given as binding are weak or reduced against the parent protein; the word gives no strength.

Protein sequences, listed by entry. Tags and fused reporters are not part of them. Residues count along the entry.
UniProt P35441, residues 19-1170: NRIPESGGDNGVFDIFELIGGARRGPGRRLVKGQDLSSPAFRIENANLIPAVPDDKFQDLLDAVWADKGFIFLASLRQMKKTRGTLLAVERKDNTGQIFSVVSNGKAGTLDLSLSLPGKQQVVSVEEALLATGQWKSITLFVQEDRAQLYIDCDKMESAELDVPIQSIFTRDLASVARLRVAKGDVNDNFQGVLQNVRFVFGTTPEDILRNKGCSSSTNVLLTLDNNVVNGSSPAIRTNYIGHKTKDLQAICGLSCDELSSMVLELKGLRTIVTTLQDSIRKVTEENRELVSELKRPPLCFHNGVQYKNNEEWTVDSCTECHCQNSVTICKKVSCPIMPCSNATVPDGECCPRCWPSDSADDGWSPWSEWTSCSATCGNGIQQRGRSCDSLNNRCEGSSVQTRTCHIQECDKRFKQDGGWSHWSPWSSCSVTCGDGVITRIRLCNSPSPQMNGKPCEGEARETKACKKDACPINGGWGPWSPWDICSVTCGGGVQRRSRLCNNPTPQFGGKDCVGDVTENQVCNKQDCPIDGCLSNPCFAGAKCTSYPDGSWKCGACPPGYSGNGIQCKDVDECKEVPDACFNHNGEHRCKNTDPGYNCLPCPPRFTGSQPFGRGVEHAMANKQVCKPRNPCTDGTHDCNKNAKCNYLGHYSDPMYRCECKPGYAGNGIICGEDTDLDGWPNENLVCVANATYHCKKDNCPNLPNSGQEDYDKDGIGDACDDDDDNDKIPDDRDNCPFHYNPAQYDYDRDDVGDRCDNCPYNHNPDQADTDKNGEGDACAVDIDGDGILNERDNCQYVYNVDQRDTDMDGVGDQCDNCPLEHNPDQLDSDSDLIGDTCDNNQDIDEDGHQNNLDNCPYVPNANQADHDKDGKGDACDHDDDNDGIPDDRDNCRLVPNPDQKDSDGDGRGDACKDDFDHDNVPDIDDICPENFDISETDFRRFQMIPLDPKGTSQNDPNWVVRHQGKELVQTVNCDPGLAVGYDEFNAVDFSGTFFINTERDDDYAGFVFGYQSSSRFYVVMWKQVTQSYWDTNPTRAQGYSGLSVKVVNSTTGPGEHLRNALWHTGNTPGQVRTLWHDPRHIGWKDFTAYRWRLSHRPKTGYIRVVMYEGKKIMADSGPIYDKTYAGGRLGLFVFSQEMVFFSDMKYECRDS

Molecular target: T1, Protein kinase R (PKR)-like ER kinase (PERK), endogenous in mouse heart (mouse (endogenous in heart)) (UniProt Q9Z2B5)
T1 sequence: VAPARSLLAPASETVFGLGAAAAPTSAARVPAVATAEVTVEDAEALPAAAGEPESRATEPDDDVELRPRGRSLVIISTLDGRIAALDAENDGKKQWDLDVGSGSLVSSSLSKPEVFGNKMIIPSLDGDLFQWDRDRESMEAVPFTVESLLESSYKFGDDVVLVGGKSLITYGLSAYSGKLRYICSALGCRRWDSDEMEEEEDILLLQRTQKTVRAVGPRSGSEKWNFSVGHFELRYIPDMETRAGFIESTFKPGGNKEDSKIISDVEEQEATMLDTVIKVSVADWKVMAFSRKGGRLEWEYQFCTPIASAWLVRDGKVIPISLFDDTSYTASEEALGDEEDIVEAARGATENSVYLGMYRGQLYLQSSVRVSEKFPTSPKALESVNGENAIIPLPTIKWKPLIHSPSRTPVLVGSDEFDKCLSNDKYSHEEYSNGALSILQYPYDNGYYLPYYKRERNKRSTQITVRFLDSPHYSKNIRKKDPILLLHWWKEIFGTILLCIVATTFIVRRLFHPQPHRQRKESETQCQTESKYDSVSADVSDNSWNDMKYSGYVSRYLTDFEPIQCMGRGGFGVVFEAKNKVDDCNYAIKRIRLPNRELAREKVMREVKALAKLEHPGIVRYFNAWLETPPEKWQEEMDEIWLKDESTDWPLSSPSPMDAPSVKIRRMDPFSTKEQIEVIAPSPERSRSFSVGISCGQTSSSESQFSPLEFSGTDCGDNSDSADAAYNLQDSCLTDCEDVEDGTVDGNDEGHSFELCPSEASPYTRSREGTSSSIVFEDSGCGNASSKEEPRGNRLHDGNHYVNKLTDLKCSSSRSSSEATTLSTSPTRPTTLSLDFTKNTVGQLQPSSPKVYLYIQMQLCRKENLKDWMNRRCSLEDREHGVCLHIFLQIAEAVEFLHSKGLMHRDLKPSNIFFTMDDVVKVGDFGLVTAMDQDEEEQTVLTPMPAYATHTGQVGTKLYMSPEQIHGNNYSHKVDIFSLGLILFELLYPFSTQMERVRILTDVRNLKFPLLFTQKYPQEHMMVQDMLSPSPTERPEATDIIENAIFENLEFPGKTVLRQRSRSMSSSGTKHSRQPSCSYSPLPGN
Experiment: co-IP; protein extracts of Thbs1 DTG hearts at 6 weeks of age; IP of PERK (Protein G Dynabeads) or of Thbs1 (biotin-labelled antibody, streptavidin Dynabeads) overnight at 4 °C; 50 mM Tris-HCl pH 7.4, 150 mM NaCl, 1% Triton X-100; western blot for Thbs1 and PERK

binding: binds
Substance: Thrombospondin-1 (Thbs1), full-length mouse, cardiomyocyte-specific transgene (from UniProt P35441 19-1170)
